± gives the standard deviation. Only a part is listed here, and it is no random draw. The uncertainty is large for many entries.
Key:
[1] = tested on: MIWI (PIWIL1) piRISC loaded with piRNA #1 (30 nt); test: pre-steady-state target cleavage rate (min^-1); higher = faster piRNA-guided slicing of the target; details: guide: piRNA #1 5'p-UGAGGUAGUAGGUUGUAUAGUAUCCAGAGG; auxiliary factor: 500 nM mouse GTSF1
How it was run: (§1)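 A transcribed, DNA-blocked target RNA library (0.1 nM) and 1 nM active affinity-purified piRISC bearing one synthetic guide were incubated in HEPES–potassium acetate buffer at 33 °C for 0–8 or 0–960 min, either with or without 500 nM GTSF1 partner protein. Uncleaved targets were sequenced, normalised to depth and to weakly complementary targets, and pooled over three trials, with k3 capped at 0.0001 min^-1. The pre-steady-state cleavage rate was derived with a burst-and-steady-state fit.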

[2] = tested on: EfPiwi piRISC loaded with piRNA #1 (26 nt); test: pre-steady-state target cleavage rate (min^-1); guide: piRNA #1 5'p-UGAGGUAGUAGGUUGUAUAGUAUCCA; MIWI and MILI are mouse PIWI proteins and EfPiwi is from a freshwater sponge; tags in brackets are library labels; higher = faster piRNA-guided slicing of the target; details: auxiliary factor: 500 nM Ephydatia muelleri Gtsf1
How it was run: as §1

| Sequence | pre-steady-state target cleavage rate [1] | pre-steady-state target cleavage rate [2] |
| --- | --- | --- |
| GGAGACCAUACUAUACAACCUACUACCAUCA | 1.35 ± 0.087 | 0.0041 ± 0.0029 |
| GGAGACCUAUGAAUACAUCCUACAACCUCA | 0.00023 ± 0.0074 | 0.000727 ± 0.0077 |
| GGAGACCUAUGUAAACAACCUUCUACCUCA | 0.00209 ± 0.0036 | 0.000268 ± 0.01 |
| GGAGACCUAACUAUACAAGCAACUACCUCA | 0.00333 ± 0.0038 | 0.000483 ± 0.0066 |
| GGAGACCUAUGUAUACUACCUACAACCUCA | 0.000747 ± 0.0078 | 0.00025 ± 0.011 |
| GGAGACCUAUGAUUACAAGCUAGUACCUCA | 0.00212 ± 0.0034 | 0.000692 ± 0.0041 |
| GGAGACGAUACUAUACAACCUAGAUCCUCA | 0.113 ± 0.015 | 0.00272 ± 0.0017 |
| GGAGACCUAACAAUACAACCUACAACCUCA | 0.00188 ± 0.0075 | 0.00197 ± 0.0058 |
| GGAGACCUAUGAUUACAACCUACGACCUCA | 0.000517 ± 0.0089 | 0.00103 ± 0.0078 |
| GGAGACCUAUGAAUACAACCUAAUACCUCA | 0.000523 ± 0.0045 | 0.000653 ± 0.0059 |
| GGAGUGGAUACUAAACAACCUACUUCCUCA | 0.0286 ± 0.0079 | 0.00165 ± 0.002 |
| GGAGACCUAUGAAUACAACCUACUACCUACA | 0.00143 ± 0.0035 | 0.000306 ± 0.021 |
| GGAGACCUAUCUAUAGCAACCUACUACCUCA | 0.00241 ± 0.0028 | 0.00357 ± 0.0041 |
| GGAGACCUAUGAAUACAACCUACUACCACA | 0.000978 ± 0.0053 | 0.00105 ± 0.0086 |
| GGAGACCUAUCUUUACUACCUACUACCUCA | 0.00251 ± 0.003 | 0.00221 ± 0.0044 |
| GGAGACCUAUGAUAUGUUCCUACUAGGUCA | 0.000141 ± 0.041 | 0.000384 ± 0.013 |
| GGAGACCUAUGAUAACAAGCUAGUACCUCA | 0.00079 ± 0.0049 | 0.00031 ± 0.011 |
| GGAGACCUAACAAUACUACCUACUACCUCA | 0.000699 ± 0.012 | 0.00212 ± 0.0042 |
| GGAGACCUAUGAUAUGUUGGUACUUCCACA | 0.000587 ± 0.0081 | 0.000259 ± 0.0075 |
| GGAGACCUAUGUUUACAACCUACUACCUGA | 0.00171 ± 0.0046 | 0.000676 ± 0.0052 |
| GGAGACCUAUGAUAUGUAACCUACUACCUCA | 0.00185 ± 0.0025 | 0.000676 ± 0.0085 |
| GGAGACCUAUGUAUACAUCCUACUACCUGA | 0.00251 ± 0.003 | 0.00116 ± 0.008 |
| GGAGACCUAUGAUAUGUUCCAUCUACCUCA | 0.000508 ± 0.0086 | 0.000238 ± 0.009 |

Single records, from the list above.
GGAGACCUAUGAUUACAACCUACGACCUCA in the list: pre-steady-state target cleavage rate [1] = 0.000517 ± 0.0089; pre-steady-state target cleavage rate [2] = 0.00103 ± 0.0078
GGAGACCUAUCUUUACUACCUACUACCUCA in the list: pre-steady-state target cleavage rate [1] = 0.00251 ± 0.003; pre-steady-state target cleavage rate [2] = 0.00221 ± 0.0044

Further results.

| Sequence | pre-steady-state target cleavage rate [1] | pre-steady-state target cleavage rate [2] |
| --- | --- | --- |
| GGAGUGGAUACUGAUACAACCUACUACCUCA | 1.3 ± 0.098 | 0.0129 ± 0.0062 |
| GGAGACCUAUGAUUACAACCUAUUACCUCA | 0.000328 ± 0.006 | 0.00188 ± 0.0045 |
| GGAGACCUAUGAUAUCAUGCUACUACCUCA | 0.000401 ± 0.0093 | 0.000434 ± 0.0041 |
| GGAGACCUAUGAUAACAACCUACUUCCUCA | 0.000277 ± 0.0075 | 0.000378 ± 0.0077 |
| GGAGACCUAUGAAUACAACCUACUACCGCA | 0.00152 ± 0.0038 | 0.000685 ± 0.0068 |
| GGAGGGGAUACUAUACAACCUACUACCUCA | 1.51 ± 0.069 | 0.209 ± 0.067 |
| GGAGACCUAUGUAAACAACCUACUACGUCA | 0.0027 ± 0.0033 | 0.000902 ± 0.0062 |
| GGAGAGGAUACAAUACAACCUACUACCUCA | 1.18 ± 0.063 | 0.0112 ± 0.005 |
| GGAGACCUAUGAUUACAUCCUACAACCUCA | 0.00088 ± 0.0049 | 0.000233 ± 0.012 |
| GGAGACGAUAGUAUACUACCUACUACCUCA | 0.67 ± 0.071 | 0.00258 ± 0.0031 |
| GGAGACCUAUGAUAUGUUCCGUACUACCUCA | 0.00084 ± 0.0059 | 0.000711 ± 0.0081 |
| GGAGACCUAUGAAUACAACCUACUACCAUCA | 0.000986 ± 0.0036 | 0.000804 ± 0.0087 |
| GGAGACCUAUGUAUACAACCUACAACCUGA | 0.0013 ± 0.0028 | 0.000221 ± 0.013 |
| GGAGACCAUACUAUACAACCUUGAACCUCA | 0.000226 ± 0.018 | 0.000135 ± 0.02 |
| GGAGACCUAUGAUUACAUCCUACUACCUGA | 0.00112 ± 0.0048 | 0.00115 ± 0.0057 |
| GGAGACCUAUGAUAACAACCUACUAACCUCA | 0.00095 ± 0.0047 | 0.000305 ± 0.015 |
| GGAGACCUAUGAAUACAACCUACCUACCUCA | 0.002 ± 0.0031 | 0.000594 ± 0.012 |
| GGAGUGGAUACUAUAGAACCUACUAGCUCA | 0.00173 ± 0.0032 | 0.00232 ± 0.0015 |
| GGAGACCUAUGAAUACAACCUACAACCUCA | 0.000332 ± 0.0076 | 0.000389 ± 0.006 |
| GGAGACCUAUGAUUACAACCUACAACCUCA | 0.000331 ± 0.0065 | 0.00134 ± 0.0049 |
| GGAGACCAUAUAUACAACCUACUACCUCA | 0.184 ± 0.018 | 0.00541 ± 0.0043 |
| GGAGACCUAUGAUAACAACACUACUACCUCA | 0.000464 ± 0.017 | 0.00034 ± 0.013 |
| GGAGACCUAACUAUACAACCUACAAGCUCA | 0.00159 ± 0.0094 | 0.000244 ± 0.01 |

Reference: the supplement of paper PMC10338343
